Data taken from PubChem BioAssay AID1347426 (Functional Genomics Laboratory (NCATS/FGL), 2020).
In all, about 31,000 sequences went through this assay and about 1,400 (4.5%) were called active.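 How the source made its calls: active means median seed-adjusted z-score above 1 or below -1; inactive means the rest.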 The list shows a part of the results.

Experiment: Novel Modifiers of Survival Motor Neuron (SMN) Protein: Gene Identification via Genome-wide siRNA Screen;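 further: luminescence tracks full-length SMN protein made from the SMN2 reporter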
Details: HEK293T SMN2-luciferase reporter, siRNA knockdown, 72 h; actives lie on both sides
Procedure, shortened: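 Genome-wide siRNA screen (10418 genes, 3 siRNAs each, 1 pmol per well) by reverse transfection in HEK293T cells stably carrying an SMN2-luciferase reporter; luminescence after 72 hours, normalized to negative-control siRNA, log10-transformed, MAD-scored.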
For ACAACAUCCUUUACCUACATT against USP35, the median seed-adjusted z-score was inactive: -0.219. For GACAAGAAGUUUACGCGUUTT against KLF14, the median seed-adjusted z-score was inactive: 0.0241. In the case of GAUACAUGAAGGUAUACAATT against POLR3G, the median seed-adjusted z-score is reported as inactive: -0.485. In the case of CACUGUUUAUGUAUAUGGATT against RHOT1, the median seed-adjusted z-score is reported as inactive: -0.189. In the case of GGAGGAGACAGCAAACGUATT against MAP1A, the median seed-adjusted z-score is reported as inactive: -0.17. With GGUCUCUCCUAAUCCAGAATT against BIN2 the median seed-adjusted z-score was inactive: 0.205. With CAAUAAAGCGUAUCGGAAATT against DNAJC27 the median seed-adjusted z-score was inactive: 0.252. For GGAUUAACAUAUGAUGACATT against ADAM18, the median seed-adjusted z-score was inactive: -0.913. In the case of GCAUUUCGCCUCUUUCACATT against ELAC1, the median seed-adjusted z-score is reported as inactive: 0.967. With CAUCAAUCCCAGAAGAUAATT against ZNF570 the median seed-adjusted z-score was inactive: 0.662. In the case of GGAAGAUGACAACAACUCUTT against CACNA1S, the median seed-adjusted z-score is reported as inactive: 0.842. For CCACCAUAGGAUAUGGUUATT against KCNJ16, the median seed-adjusted z-score was inactive: -0.705. With GGUCCGCUACUACCACCAATT against FUT4 the median seed-adjusted z-score was inactive: -0.24. With “CGGUCAGCAGUGUUCGUGATT against ST6GALNAC6” the median seed-adjusted z-score was inactive: 0.367. In the case of ACUUCAAGCUCCUAAGCCATT against HBA1, the median seed-adjusted z-score is reported as active: -1.03. For GCAGCAAACUUGCCCAGAUTT against PBX2, the median seed-adjusted z-score was inactive: 0.253. With GAGCACGACUGAAAAUGUATT against PTS the median seed-adjusted z-score was inactive: -0.103. For CAAUCAUGUCGAGAAAUAATT against TGIF2LX, the median seed-adjusted z-score was inactive: -0.568. With CCCUGUUCUUGACUCGGCATT against ADAM33 the median seed-adjusted z-score was inactive: -0.038. In the case of GGACUGGUGUUGGACAUCATT against ADCY3, the median seed-adjusted z-score is reported as inactive: -0.294. With GCUCUCCAACAAUUACUAUTT against NDUFA7 the median seed-adjusted z-score was inactive: 0.356. In the case of CGAGAAAUUGCACAACCGATT against NACC1, the median seed-adjusted z-score is reported as active: 1.59. With CAUUGAAGUUAGCUAGUGATT against LOC91431 the median seed-adjusted z-score was inactive: 0.0402. In the case of CAAGAGACAUUGUGAUCAUTT against ZNF707, the median seed-adjusted z-score is reported as inactive: -0.119. For AGGCUAUGCUGAGACAUAUTT against PARG, the median seed-adjusted z-score was inactive: 0. With AGAUGAAGCUGGACCUAGATT against TWF2 the median seed-adjusted z-score was inactive: 0.303. For AAUACUUCCUAGAAUCACATT against APTX, the median seed-adjusted z-score was inactive: -0.131. For GGGAAUAUCUCUUCCGACATT against ACTL7A, the median seed-adjusted z-score was active: 1.1. In the case of GCAGUACCAGGACACUAAATT against MSN, the median seed-adjusted z-score is reported as inactive: -0.736. For GGAUCAUUCGUGUACAUCATT against ACVR1, the median seed-adjusted z-score was inactive: -0.217. In the case of CUCAUGAACUUGCACAACATT against WNT7A, the median seed-adjusted z-score is reported as inactive: 0.0931. In the case of GAAGUUUUAUGGACCACAATT against UBE2H, the median seed-adjusted z-score is reported as inactive: 0. With GGCAUCUUACUAUAAGUUUTT against SMG6 the median seed-adjusted z-score was inactive: -0.265. With GGAUAAGUAUUCUUACUGUTT against SC5DL the median seed-adjusted z-score was inactive: -0.439. In the case of GUAUAUAGAAGAACUACAATT against RALGPS2, the median seed-adjusted z-score is reported as inactive: 0.0124. In the case of GGAAACUAUUCACCAGUUATT against TRAF6, the median seed-adjusted z-score is reported as inactive: 0.324. In the case of GGAUCGUUGAUCAGCAUUATT against MAPK4, the median seed-adjusted z-score is reported as inactive: 0.235. In the case of GGAACUUUGCGAUACAUGATT against EIF2AK2, the median seed-adjusted z-score is reported as inactive: 0.419. With CCCAAUAUGUACAACAGUATT against TARSL2 the median seed-adjusted z-score was inactive: 0.361. With AGAAGGUUUUGUUCAGGGATT against PPM1M the median seed-adjusted z-score was inactive: 0. With AACUGCUCUUUUUACUUUATT against U2AF1L4 the median seed-adjusted z-score was inactive: 0. In the case of GCCUUUCAAUCGGCCCAUUTT against DGAT2L6, the median seed-adjusted z-score is reported as inactive: -0.528. For GUAAGGCAAAGACUCCCUATT against ZNF673, the median seed-adjusted z-score was inactive: 0.419. With GAAACGCAACUAUAUCCUATT against HNRPUL1 the median seed-adjusted z-score was inactive: -0.047. In the case of CCCAAAUUCUGAGACGGCATT against RFX4, the median seed-adjusted z-score is reported as inactive: -0.0226. With GGAAGACAGAUAUGAGGAATT against TPM1 the median seed-adjusted z-score was inactive: 0.659. With GGGACUAAUUUUACGAUAUTT against SLC9A9 the median seed-adjusted z-score was inactive: 0.143. With GAUUUGGUAUCAGCACUAATT against FA2H the median seed-adjusted z-score was inactive: 0.0497. In the case of CAACAACGCAAGAACCUUUTT against BBX, the median seed-adjusted z-score is reported as inactive: -0.0824. With GCAUCAACAGUAAUGAGAATT against KRT39 the median seed-adjusted z-score was inactive: 0.161. With CAGGUAUUGUGGAAAGUAUTT against ADH4 the median seed-adjusted z-score was inactive: -0.0991. In the case of GCAUAGCCCUUACUCUACATT against ZNF527, the median seed-adjusted z-score is reported as inactive: 0. In the case of GCCUCGGAGAAGUCAAUGUTT against GFI1, the median seed-adjusted z-score is reported as inactive: -0.047. In the case of AGAGCAUUGGGUACACCAATT against COL6A2, the median seed-adjusted z-score is reported as inactive: 0.0119.
